Drawing on publication PMC12663271, this text covers binding for 6 molecules.

These are yes or no findings as the source states them, for the method shown. A result given as binding can be weak or reduced; the word gives no strength. Tags and fused reporters may be left off the sequences shown. For part of these data: In cells and extracts the contact can be indirect.

Test [1] concerns the target Flag-tagged AMPKα2 (human). Kind of test: co-IP; 293T cells co-transfected with Flag- and HA-tagged constructs; lysis in BC300 (300 mM KCl, 0.1% NP40), diluted with an equal volume of BC0; anti-Flag M2 magnetic beads; washes with BC150; western blot; glucose said to have a limited effect on the interaction (Fig. S3A). (A western blot detects proteins with antibodies after separation by electrophoresis.)

Another test has as its target GST-AMPKα2 (human). Briefly: pull-down; GST-AMPKα2 held on anti-GST magnetic beads, 500 ng purified His-WIP1 added, 4 °C overnight; binding buffer 50 mM Tris pH 7.4, 300 mM NaCl, 10% glycerol, 0.1% NP40; eluted with glutathione; western blot; both purified.

B1: HA-tagged WIP1 373–605 aa (domain or fragment, UniProt O15297 373-605)
chain: ICISPEVDNQGNFTNEDELYLNLTDSPSYNSQETCVMTPSPCSTPPVKSLEEDPWPRVNSKDHIPALVRSNAFSENFLEVSAEIARENVQGVVIPSKDPEPLEENCAKALTLRIHDSLNNSLPIGLVPTNSTNTVMDQKNLKMSTPGQMKAQEIERTPPTNFKRTLEESNSGPLMKKHRRNGLSRSSGAQPASLPTTSQRKNSVKLTMRRRLRGQKKIGNPLLHQHRKTVCVC
Turning to B1, the binding result in test [1] is recorded as “no binding”.

B2: HA-tagged WIP1 1–372 aa (domain or fragment, UniProt O15297 1-372)
chain: MAGLYSLGVSVFSDQGGRKYMEDVTQIVVEPEPTAEEKPSPRRSLSQPLPPRPSPAALPGGEVSGKGPAVAAREARDPLPDAGASPAPSRCCRRRSSVAFFAVCDGHGGREAAQFAREHLWGFIKKQKGFTSSEPAKVCAAIRKGFLACHLAMWKKLAEWPKTMTGLPSTSGTTASVVIIRGMKMYVAHVGDSGVVLGIQDDPKDDFVRAVEVTQDHKPELPKERERIEGLGGSVMNKSGVNRVVWKRPRLTHNGPVRRSTVIDQIPFLAVARALGDLWSYDFFSGEFVVSPEPDTSVHTLDPQKHKYIILGSDGLWNMIPPQDAISMCQDQEEKKYLMGEHGQSCAKMLVNRALGRWRQRMLRADNTSAIV
With B2, the binding entry in test [1] is given as “binds”.

B3: HA-tagged WIP1 101–605 aa (domain or fragment, UniProt O15297 101-605)
chain: FAVCDGHGGREAAQFAREHLWGFIKKQKGFTSSEPAKVCAAIRKGFLACHLAMWKKLAEWPKTMTGLPSTSGTTASVVIIRGMKMYVAHVGDSGVVLGIQDDPKDDFVRAVEVTQDHKPELPKERERIEGLGGSVMNKSGVNRVVWKRPRLTHNGPVRRSTVIDQIPFLAVARALGDLWSYDFFSGEFVVSPEPDTSVHTLDPQKHKYIILGSDGLWNMIPPQDAISMCQDQEEKKYLMGEHGQSCAKMLVNRALGRWRQRMLRADNTSAIVICISPEVDNQGNFTNEDELYLNLTDSPSYNSQETCVMTPSPCSTPPVKSLEEDPWPRVNSKDHIPALVRSNAFSENFLEVSAEIARENVQGVVIPSKDPEPLEENCAKALTLRIHDSLNNSLPIGLVPTNSTNTVMDQKNLKMSTPGQMKAQEIERTPPTNFKRTLEESNSGPLMKKHRRNGLSRSSGAQPASLPTTSQRKNSVKLTMRRRLRGQKKIGNPLLHQHRKTVCVC
For the molecule B3, in test [1], the binding result was “binds”.

B4: HA-tagged WIP1 (enzyme, UniProt O15297 1-605)
chain: MAGLYSLGVSVFSDQGGRKYMEDVTQIVVEPEPTAEEKPSPRRSLSQPLPPRPSPAALPGGEVSGKGPAVAAREARDPLPDAGASPAPSRCCRRRSSVAFFAVCDGHGGREAAQFAREHLWGFIKKQKGFTSSEPAKVCAAIRKGFLACHLAMWKKLAEWPKTMTGLPSTSGTTASVVIIRGMKMYVAHVGDSGVVLGIQDDPKDDFVRAVEVTQDHKPELPKERERIEGLGGSVMNKSGVNRVVWKRPRLTHNGPVRRSTVIDQIPFLAVARALGDLWSYDFFSGEFVVSPEPDTSVHTLDPQKHKYIILGSDGLWNMIPPQDAISMCQDQEEKKYLMGEHGQSCAKMLVNRALGRWRQRMLRADNTSAIVICISPEVDNQGNFTNEDELYLNLTDSPSYNSQETCVMTPSPCSTPPVKSLEEDPWPRVNSKDHIPALVRSNAFSENFLEVSAEIARENVQGVVIPSKDPEPLEENCAKALTLRIHDSLNNSLPIGLVPTNSTNTVMDQKNLKMSTPGQMKAQEIERTPPTNFKRTLEESNSGPLMKKHRRNGLSRSSGAQPASLPTTSQRKNSVKLTMRRRLRGQKKIGNPLLHQHRKTVCVC
For the molecule B4, the binding entry in test [1] is listed as “binds”.

B5: His-WIP1 (enzyme, UniProt O15297 1-605)
chain: MAGLYSLGVSVFSDQGGRKYMEDVTQIVVEPEPTAEEKPSPRRSLSQPLPPRPSPAALPGGEVSGKGPAVAAREARDPLPDAGASPAPSRCCRRRSSVAFFAVCDGHGGREAAQFAREHLWGFIKKQKGFTSSEPAKVCAAIRKGFLACHLAMWKKLAEWPKTMTGLPSTSGTTASVVIIRGMKMYVAHVGDSGVVLGIQDDPKDDFVRAVEVTQDHKPELPKERERIEGLGGSVMNKSGVNRVVWKRPRLTHNGPVRRSTVIDQIPFLAVARALGDLWSYDFFSGEFVVSPEPDTSVHTLDPQKHKYIILGSDGLWNMIPPQDAISMCQDQEEKKYLMGEHGQSCAKMLVNRALGRWRQRMLRADNTSAIVICISPEVDNQGNFTNEDELYLNLTDSPSYNSQETCVMTPSPCSTPPVKSLEEDPWPRVNSKDHIPALVRSNAFSENFLEVSAEIARENVQGVVIPSKDPEPLEENCAKALTLRIHDSLNNSLPIGLVPTNSTNTVMDQKNLKMSTPGQMKAQEIERTPPTNFKRTLEESNSGPLMKKHRRNGLSRSSGAQPASLPTTSQRKNSVKLTMRRRLRGQKKIGNPLLHQHRKTVCVC
Take B5: the binding entry with GST-AMPKα2 (human) is on record as “binds”.

B6: HA-tagged WIP1 1–100 aa (domain or fragment, UniProt O15297 1-100)
chain: MAGLYSLGVSVFSDQGGRKYMEDVTQIVVEPEPTAEEKPSPRRSLSQPLPPRPSPAALPGGEVSGKGPAVAAREARDPLPDAGASPAPSRCCRRRSSVAF
On to B6, for which, in test [1], the binding entry is “no binding”.
